These are yes or no findings as the source states them, for the method shown. In cells and extracts the contact can be indirect. A yes stands for co-enrichment or nearness to the bait. Other partners may have been found.
Molecular target: PbARID fused with GFP (PbARID::GFP) (P. berghei)
Experiment: affinity purification with mass spectrometry; RIME (ChIP combined with MS): gametocyte-enriched PbARID::GFP parasites fixed with 1% formalin, lysed in SDS lysis buffer, sonicated; immunoprecipitated with anti-GFP polyclonal antibodies (Abcam ab290) on Dynabeads Protein A; on-bead trypsin digest, LC-MS/MS; compared with RIME of WT gametocytes; hits unique or more than five-fold enriched with P < 0.05; four independent experiments

By UniProt entry, the sequences of proteins in these tests, tags left out. Where a name states a change or a piece, a line headed by the entry shows the natural chain unless it says otherwise.
UniProt A0A509ANP9: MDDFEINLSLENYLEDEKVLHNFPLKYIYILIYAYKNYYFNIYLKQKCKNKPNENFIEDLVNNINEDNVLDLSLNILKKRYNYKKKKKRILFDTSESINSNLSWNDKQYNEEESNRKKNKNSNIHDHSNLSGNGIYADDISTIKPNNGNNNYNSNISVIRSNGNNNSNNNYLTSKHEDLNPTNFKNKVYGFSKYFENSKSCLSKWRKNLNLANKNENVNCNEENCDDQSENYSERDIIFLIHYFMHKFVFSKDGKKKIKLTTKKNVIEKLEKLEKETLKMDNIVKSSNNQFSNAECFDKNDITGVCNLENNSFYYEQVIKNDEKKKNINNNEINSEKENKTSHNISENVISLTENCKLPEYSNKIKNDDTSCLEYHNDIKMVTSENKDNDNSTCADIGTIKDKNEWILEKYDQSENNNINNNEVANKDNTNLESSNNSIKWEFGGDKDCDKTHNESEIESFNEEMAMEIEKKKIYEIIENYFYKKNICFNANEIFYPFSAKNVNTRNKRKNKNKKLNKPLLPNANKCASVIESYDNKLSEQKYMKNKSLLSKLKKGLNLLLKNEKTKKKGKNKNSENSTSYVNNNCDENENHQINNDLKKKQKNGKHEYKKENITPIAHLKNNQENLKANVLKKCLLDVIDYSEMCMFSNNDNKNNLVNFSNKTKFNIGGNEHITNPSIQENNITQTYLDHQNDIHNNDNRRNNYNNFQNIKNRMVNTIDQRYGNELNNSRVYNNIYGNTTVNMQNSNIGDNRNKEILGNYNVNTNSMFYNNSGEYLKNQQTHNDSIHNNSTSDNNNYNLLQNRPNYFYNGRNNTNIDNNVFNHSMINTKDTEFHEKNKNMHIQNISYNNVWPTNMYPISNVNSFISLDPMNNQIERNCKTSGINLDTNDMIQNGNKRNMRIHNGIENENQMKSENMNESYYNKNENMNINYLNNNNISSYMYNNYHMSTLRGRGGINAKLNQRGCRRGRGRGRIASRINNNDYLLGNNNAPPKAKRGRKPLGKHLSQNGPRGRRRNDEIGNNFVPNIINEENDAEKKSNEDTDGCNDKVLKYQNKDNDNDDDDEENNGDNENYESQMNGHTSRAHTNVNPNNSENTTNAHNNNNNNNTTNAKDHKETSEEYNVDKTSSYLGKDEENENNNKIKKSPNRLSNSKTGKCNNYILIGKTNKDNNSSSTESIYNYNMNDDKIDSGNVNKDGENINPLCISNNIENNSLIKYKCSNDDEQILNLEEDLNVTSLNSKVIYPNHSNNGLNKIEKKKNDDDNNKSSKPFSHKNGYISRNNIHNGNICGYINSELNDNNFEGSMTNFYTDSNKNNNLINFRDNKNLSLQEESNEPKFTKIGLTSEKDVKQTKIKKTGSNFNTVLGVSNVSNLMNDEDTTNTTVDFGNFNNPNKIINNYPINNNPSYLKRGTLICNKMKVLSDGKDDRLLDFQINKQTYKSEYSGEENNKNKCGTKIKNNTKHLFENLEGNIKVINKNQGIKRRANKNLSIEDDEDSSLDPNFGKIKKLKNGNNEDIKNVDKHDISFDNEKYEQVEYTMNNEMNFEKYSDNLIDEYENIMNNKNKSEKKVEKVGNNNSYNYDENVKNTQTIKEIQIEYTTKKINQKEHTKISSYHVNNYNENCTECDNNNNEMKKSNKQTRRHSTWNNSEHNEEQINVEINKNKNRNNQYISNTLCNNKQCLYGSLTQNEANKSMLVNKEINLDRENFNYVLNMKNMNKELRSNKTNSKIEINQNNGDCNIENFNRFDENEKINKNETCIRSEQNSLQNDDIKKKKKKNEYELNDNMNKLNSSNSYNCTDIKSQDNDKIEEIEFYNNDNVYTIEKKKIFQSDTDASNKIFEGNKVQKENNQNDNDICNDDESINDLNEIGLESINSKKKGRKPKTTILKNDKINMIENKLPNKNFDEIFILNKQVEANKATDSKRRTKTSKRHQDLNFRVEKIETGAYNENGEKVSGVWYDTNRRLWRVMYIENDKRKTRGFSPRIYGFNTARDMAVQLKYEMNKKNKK
UniProt A0A509AUV4: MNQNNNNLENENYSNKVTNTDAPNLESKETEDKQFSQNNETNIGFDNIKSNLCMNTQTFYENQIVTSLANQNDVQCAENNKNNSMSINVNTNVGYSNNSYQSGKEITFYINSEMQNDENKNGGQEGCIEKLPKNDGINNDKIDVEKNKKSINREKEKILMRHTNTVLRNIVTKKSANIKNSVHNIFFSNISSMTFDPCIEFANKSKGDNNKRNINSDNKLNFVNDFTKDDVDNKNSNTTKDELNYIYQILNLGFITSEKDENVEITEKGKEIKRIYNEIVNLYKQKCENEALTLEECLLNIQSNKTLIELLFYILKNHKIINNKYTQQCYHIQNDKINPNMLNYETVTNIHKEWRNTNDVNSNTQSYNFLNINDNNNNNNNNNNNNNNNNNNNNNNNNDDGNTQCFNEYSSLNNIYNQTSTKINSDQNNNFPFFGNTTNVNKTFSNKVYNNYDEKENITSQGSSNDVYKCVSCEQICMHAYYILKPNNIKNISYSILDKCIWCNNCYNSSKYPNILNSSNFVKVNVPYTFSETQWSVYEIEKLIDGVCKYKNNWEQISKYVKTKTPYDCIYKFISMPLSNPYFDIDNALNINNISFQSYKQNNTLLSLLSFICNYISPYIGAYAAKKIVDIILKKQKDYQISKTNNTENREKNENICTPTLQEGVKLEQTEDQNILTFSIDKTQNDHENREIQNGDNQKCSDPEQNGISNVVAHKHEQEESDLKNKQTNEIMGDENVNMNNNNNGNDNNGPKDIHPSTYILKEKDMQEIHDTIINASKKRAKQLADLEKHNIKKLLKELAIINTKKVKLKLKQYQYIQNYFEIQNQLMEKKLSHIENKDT
UniProt A0A509ARX1: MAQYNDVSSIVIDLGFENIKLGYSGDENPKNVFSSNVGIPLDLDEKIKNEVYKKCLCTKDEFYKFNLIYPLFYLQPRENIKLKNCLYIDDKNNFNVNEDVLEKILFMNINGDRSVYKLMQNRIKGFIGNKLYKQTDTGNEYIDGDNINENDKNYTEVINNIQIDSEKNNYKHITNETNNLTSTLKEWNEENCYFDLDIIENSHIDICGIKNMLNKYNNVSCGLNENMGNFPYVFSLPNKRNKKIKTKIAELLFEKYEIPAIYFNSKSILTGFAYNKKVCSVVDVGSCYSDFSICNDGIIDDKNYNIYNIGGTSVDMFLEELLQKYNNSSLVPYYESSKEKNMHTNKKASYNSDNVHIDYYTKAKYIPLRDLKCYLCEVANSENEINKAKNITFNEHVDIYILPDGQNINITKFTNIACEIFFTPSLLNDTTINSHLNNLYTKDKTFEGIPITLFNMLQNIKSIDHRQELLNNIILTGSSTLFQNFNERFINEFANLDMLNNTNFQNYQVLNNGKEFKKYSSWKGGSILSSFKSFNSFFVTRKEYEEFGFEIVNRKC
UniProt A0A509AM07: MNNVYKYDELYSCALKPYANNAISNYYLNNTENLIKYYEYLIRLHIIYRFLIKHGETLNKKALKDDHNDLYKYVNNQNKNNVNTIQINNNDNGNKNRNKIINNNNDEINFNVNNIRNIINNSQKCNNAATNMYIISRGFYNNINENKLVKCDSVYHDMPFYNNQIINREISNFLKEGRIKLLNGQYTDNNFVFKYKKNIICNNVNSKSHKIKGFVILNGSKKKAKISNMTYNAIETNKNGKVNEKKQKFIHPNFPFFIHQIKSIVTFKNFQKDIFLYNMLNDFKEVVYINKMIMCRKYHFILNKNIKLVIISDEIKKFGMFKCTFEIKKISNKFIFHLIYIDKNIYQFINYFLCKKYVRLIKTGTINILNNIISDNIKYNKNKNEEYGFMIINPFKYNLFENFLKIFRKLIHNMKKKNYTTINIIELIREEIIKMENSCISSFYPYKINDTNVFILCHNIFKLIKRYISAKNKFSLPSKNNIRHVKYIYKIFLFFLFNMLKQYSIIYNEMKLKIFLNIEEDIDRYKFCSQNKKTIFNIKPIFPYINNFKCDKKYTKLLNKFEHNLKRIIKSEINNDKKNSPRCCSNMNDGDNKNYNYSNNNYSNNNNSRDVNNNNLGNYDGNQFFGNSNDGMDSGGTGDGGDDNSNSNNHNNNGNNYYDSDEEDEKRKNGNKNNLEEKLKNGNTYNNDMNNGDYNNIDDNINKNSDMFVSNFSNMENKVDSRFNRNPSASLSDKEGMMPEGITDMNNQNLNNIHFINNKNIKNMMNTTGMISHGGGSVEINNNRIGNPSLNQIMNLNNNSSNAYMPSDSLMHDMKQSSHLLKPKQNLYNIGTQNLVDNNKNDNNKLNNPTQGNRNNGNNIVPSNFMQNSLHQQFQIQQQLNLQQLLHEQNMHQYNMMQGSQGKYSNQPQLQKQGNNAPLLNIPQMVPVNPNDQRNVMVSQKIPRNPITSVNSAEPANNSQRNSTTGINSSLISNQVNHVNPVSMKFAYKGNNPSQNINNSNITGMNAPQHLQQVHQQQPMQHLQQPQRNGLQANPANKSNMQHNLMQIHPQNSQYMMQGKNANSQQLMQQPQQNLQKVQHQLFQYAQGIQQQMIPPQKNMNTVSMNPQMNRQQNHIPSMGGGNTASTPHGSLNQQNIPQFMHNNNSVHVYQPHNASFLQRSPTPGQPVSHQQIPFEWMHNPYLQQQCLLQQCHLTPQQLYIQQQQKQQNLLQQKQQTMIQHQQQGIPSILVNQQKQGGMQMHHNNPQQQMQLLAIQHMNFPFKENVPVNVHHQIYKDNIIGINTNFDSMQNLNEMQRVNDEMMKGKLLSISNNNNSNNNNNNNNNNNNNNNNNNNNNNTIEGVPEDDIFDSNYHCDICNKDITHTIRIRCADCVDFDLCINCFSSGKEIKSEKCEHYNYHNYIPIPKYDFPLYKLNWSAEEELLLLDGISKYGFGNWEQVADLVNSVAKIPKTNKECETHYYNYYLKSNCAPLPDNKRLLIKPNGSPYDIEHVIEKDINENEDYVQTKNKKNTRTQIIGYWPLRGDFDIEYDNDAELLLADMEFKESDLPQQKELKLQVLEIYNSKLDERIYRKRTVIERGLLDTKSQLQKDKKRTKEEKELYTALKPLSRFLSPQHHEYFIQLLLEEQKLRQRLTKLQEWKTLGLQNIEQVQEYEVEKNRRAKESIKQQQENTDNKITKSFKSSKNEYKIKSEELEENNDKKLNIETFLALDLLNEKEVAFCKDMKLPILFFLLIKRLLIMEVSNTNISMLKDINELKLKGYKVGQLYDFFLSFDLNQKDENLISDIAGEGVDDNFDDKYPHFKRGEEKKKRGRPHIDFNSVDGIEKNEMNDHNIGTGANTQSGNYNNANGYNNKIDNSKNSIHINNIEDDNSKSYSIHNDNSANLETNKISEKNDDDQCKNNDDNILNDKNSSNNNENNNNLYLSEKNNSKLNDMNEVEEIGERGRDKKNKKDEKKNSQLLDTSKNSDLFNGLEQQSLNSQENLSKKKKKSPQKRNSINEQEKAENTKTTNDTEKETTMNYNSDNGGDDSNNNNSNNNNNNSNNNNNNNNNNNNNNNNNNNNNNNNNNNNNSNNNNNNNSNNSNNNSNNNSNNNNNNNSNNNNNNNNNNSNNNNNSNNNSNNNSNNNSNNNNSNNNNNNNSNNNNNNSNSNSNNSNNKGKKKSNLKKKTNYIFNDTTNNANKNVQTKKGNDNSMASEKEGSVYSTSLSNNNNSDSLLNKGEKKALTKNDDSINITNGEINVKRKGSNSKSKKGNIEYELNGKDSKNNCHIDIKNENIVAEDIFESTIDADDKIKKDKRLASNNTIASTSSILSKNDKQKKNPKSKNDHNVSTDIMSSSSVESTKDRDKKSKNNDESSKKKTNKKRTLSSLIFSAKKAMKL
UniProt Q4YU79: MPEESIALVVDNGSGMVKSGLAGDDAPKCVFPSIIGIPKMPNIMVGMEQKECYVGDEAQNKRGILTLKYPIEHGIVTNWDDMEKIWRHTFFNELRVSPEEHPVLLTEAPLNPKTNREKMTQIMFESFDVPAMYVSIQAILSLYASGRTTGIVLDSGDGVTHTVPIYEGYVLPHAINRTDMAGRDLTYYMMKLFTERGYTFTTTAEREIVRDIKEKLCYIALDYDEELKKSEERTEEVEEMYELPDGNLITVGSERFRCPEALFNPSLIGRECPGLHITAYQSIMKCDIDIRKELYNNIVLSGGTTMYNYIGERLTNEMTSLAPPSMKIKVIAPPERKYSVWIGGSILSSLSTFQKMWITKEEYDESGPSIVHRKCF

Substance | binding
chromodomain-helicase-DNA-binding protein 1 (CHD1) (from UniProt A0A509AG56) | binds
AP2-LT (from UniProt A0A509ANP9) | binds
PHD2 (from UniProt A0A509AN32) | binds
homeodomain-like protein 1 (HDP1) (from UniProt A0A509APT7) | binds
PbSWIB (from UniProt A0A509AJA1) | binds
GCN5 (from UniProt A0A509AHP2) | binds

Second part, the substance after the results:

binding | Substance
binds | PbSWI3 (from UniProt A0A509AUV4)
binds | actin-like protein ALP2B (from UniProt A0A509ARX1)
binds | ADA2 (from UniProt A0A509AM07)
binds | MD2 (from UniProt A0A509AVW6)
binds | actin II (from UniProt Q4YU79 1-376)
